Drawing on PubChem BioAssay AID330 (DTP/NCI, 2004), this text covers survivor count and T/C for 12 molecules.

The test system of the experiment is P388 leukemia ip, CD2F1 mice, survival T/C. Put plainly: NCI In Vivo Anticancer Drug Screen. Data for tumor model P388 Leukemia (intraperitoneal) in CD2F1 (CDF1) mice. The note with it: T/C endpoint: median survival time, higher T/C = longer survival.
Where [1] appears, read: dose: 200.0 mg/kg/injection, schedule: Q01DX009 (ip), vehicle: saline with Tween-80.
The mark [2] stands for this setting: dose: 3.13 mg/kg/injection, schedule: Q01DX009 (ip), vehicle: saline with Tween-80.
The mark [3] stands for this setting: dose: 12.5 mg/kg/injection, schedule: Q01DX005 (ip), vehicle: DMSO.
The mark [4] stands for this setting: dose: 25.0 mg/kg/injection, schedule: Q01DX005 (ip), vehicle: DMSO.

The list shows only some results of the screen, not a fair sample: it gathers tests that were run many times, whatever their T/C, doses with no T/C, and many T/C values between a quarter and a half above the control. Further doses and runs are listed elsewhere. T/C: endpoint of the treated group in % of that of the vehicle group. Some entries give survivors of the animals treated and no T/C: the source holds a T/C of zero for them, seemingly a mark for toxic or unscored doses. Some doses without a T/C left all or most animals alive at the check, yet need not have been tolerated: the source hardly ever lists a survival T/C far under the control, and the zero likely stands for such cases as well. Survivors were counted at the toxicity check, usually on the fifth day, unless a day is given; later deaths do not show. Schedules are NCI's codes, read here as Q, the interval in days (D) or hours (H), X, the number of doses. For survival time, the PubChem record calls one and a half times the control and up active, and a quarter to a half above the control has no call in these data; cut-offs in other NCI protocols can differ. Some T/C values are followed by the survivors on the day toxicity was checked, most often the fifth; where none is given, no animal had died by that day. Some doses were run more than once; the values are given in rising order.

Consider `O=C(O)c1ccccc1.O=C(O)c1ccccc1.O=C(O)c1ccccc1.O=C(O)c1ccccc1.[Cu].[Cu]`, for which the survivor count (dose: 30.0 mg/kg/injection, schedule: Q01DX005 (ip), vehicle: Klucel (hydroxypropylcellulose) (HPC)) is 2 of 6; the survivor count (dose: 60.0 mg/kg/injection, schedule: Q01DX005 (ip), vehicle: Klucel (hydroxypropylcellulose) (HPC)) is 0 of 6; the survivor count (dose: 120.0 mg/kg/injection, schedule: Q01DX005 (ip), vehicle: Klucel (hydroxypropylcellulose) (HPC)) is listed as 0 of 6; the survivor count (dose: 240.0 mg/kg/injection, schedule: Q01DX005 (ip), vehicle: Klucel (hydroxypropylcellulose) (HPC)) was 0 of 6.

Take `O=C1NC(=O)/C(=C/C=C/c2ccccc2)S1`: the T/C was 128 and 131 % of control (dose: 100.0 mg/kg/injection, schedule: Q01DX009 (ip), vehicle: saline with Tween-80); 130 and 138 % of control [4 of 6 alive] under setting [1].

Regarding `c1ccc(CN2CCC(N3CNc4ccccc43)CC2)cc1`, the survivor count (dose: 100.0 mg/kg/injection, schedule: Q04DX003 (ip), vehicle: saline with Tween-80) was 1 of 6; the survivor count (dose: 200.0 mg/kg/injection, schedule: Q04DX003 (ip), vehicle: saline with Tween-80) is recorded as 0 of 6; the survivor count (dose: 400.0 mg/kg/injection, schedule: Q04DX003 (ip), vehicle: saline with Tween-80) is given as 0 of 6.

`CN1C(=O)C23CC4=CC=CC(O)C4N2C(=O)C1(CO)SS3` (stereo not given): the survivor count is, setting by setting: (dose: 12.5 mg/kg/injection, schedule: Q04DX002 (ip), vehicle: saline with Tween-80) 0 of 6; (dose: 25.0 mg/kg/injection, schedule: Q04DX002 (ip), vehicle: saline with Tween-80) 0 of 6; (dose: 50.0 mg/kg/injection, schedule: Q04DX002 (ip), vehicle: saline with Tween-80) 0 of 6.

Take `CCOS(=O)(=O)CS(C)(=O)=O`: the T/C (dose: 50.0 mg/kg/injection, schedule: Q01DX005 (ip), vehicle: saline) is 133 % of control. The survivor count (dose: 200.0 mg/kg/injection, schedule: Q01DX005 (ip), vehicle: saline) is 6 of 6.

For the molecule `NNC(=O)C(=O)Nc1ccc(F)cc1`, the survivor count under setting [1] was 3 of 6.

On to `Nc1nc(N)c(CCc2ccccc2)c(N)n1`, for which the survivor count is, setting by setting: (dose: 100.0 mg/kg/injection, schedule: Q01DX005 (ip), vehicle: Klucel (hydroxypropylcellulose) (HPC)) 0 of 5; (dose: 200.0 mg/kg/injection, schedule: Q01DX005 (ip), vehicle: Klucel (hydroxypropylcellulose) (HPC)) 0 of 5.

For `COc1ccc(/C=C2\CCc3cc(OC)ccc3C2=O)cc1`, the survivor count is, setting by setting: (dose: 50.0 mg/kg/injection, schedule: Q01DX009 (ip), vehicle: Klucel (hydroxypropylcellulose) (HPC)) 6 of 6; (dose: 100.0 mg/kg/injection, schedule: Q01DX009 (ip), vehicle: Klucel (hydroxypropylcellulose) (HPC)) 6 of 6; (dose: 200.0 mg/kg/injection, schedule: Q01DX009 (ip), vehicle: Klucel (hydroxypropylcellulose) (HPC)) 6 of 6.

`CCc1nc(N)nc(N)c1-c1ccc(NCCCCCCCCCCCCN)c([N+](=O)[O-])c1`: the T/C (dose: 60.0 mg/kg/injection, schedule: Q01DX005 (ip), vehicle: saline with Tween-80) was 130 and 143 % of control. For the same molecule, the survivor count reads like this: (dose: 120.0 mg/kg/injection, schedule: Q01DX005 (ip), vehicle: saline with Tween-80) 5 of 6; (dose: 240.0 mg/kg/injection, schedule: Q01DX005 (ip), vehicle: saline with Tween-80) 0 of 6.

Turning to `Cc1ccc(S(=O)(=O)N=S(C)(C)=O)cc1`, the T/C was 136 % of control (dose: 0.51 mg/kg/injection, schedule: Q01DX009 (ip), vehicle: saline with Tween-80); 133 and 134 % of control (dose: 0.78 mg/kg/injection, schedule: Q01DX009 (ip), vehicle: saline with Tween-80); 133 % of control (dose: 1.17 mg/kg/injection, schedule: Q01DX009 (ip), vehicle: saline with Tween-80); 94, 100, 114 % of control under setting [2]. For the same molecule, the survivor count under setting [2] is listed as 6 of 6.

Turning to `COc1cccc2c1C(=O)c1c(O)c3c(c(O)c1C2=O)C[C@@](O)(C(C)=O)C[C@@H]3OC1CC(NC(=O)C(N)CC(C)C)C(O)C(C)O1` (stereo not given in full), the T/C is, setting by setting: (dose: 3.12 mg/kg/injection, schedule: Q04DX003 (ip), vehicle: saline) 137 % of control; (dose: 6.25 mg/kg/injection, schedule: Q04DX003 (ip), vehicle: saline) 130 % of control; (dose: 12.5 mg/kg/injection, schedule: Q04DX003 (ip), vehicle: saline) 127 and 140 % of control; (dose: 50.0 mg/kg/injection, schedule: Q04DX003 (ip), vehicle: saline) 144 % of control [5 of 6 alive on day 9].

In the case of `COc1cc2c(oc(=O)c3cc(C)cc(OC)c32)c2c(C3OC(C)C(O)C(C)(O)C3O)ccc(O)c12` (stereo not given), the T/C is 127 % of control (dose: 6.25 mg/kg/injection, schedule: Q01DX005 (ip), vehicle: DMSO); 140 % of control under setting [3]; 134 % of control under setting [4]. Moreover, the survivor count runs as follows: under setting [3], 6 of 6; under setting [4], 6 of 6; (dose: 50.0 mg/kg/injection, schedule: Q01DX005 (ip), vehicle: DMSO) 6 of 6; (dose: 100.0 mg/kg/injection, schedule: Q01DX005 (ip), vehicle: DMSO) 6 of 6; (dose: 200.0 mg/kg/injection, schedule: Q01DX005 (ip), vehicle: DMSO) 6 of 6.
